Results published in the supplement of paper PMC10849652.
This is one part of the list.

The chains behind the UniProt entries cited, without tags or fusion partners. Where a name states a change or a piece, a line headed by the entry shows the natural chain unless it says otherwise.
UniProt Q9Y2Q5, whole entry, looked up: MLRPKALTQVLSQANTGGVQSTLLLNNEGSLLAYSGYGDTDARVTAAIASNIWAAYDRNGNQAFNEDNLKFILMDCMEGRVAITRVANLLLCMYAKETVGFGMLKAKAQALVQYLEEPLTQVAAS
UniProt O43813, whole entry, looked up: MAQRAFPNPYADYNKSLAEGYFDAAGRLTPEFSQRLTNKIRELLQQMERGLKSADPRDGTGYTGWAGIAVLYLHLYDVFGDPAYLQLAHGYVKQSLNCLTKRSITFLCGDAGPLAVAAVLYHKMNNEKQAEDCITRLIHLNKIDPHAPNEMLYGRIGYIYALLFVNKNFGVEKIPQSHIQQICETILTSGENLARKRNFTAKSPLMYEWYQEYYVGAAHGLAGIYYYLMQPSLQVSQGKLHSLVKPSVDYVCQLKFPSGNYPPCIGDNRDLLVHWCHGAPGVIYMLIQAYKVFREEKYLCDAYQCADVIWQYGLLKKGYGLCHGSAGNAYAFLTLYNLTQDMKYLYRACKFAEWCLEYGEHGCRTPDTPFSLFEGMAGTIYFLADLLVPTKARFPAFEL
UniProt P48357: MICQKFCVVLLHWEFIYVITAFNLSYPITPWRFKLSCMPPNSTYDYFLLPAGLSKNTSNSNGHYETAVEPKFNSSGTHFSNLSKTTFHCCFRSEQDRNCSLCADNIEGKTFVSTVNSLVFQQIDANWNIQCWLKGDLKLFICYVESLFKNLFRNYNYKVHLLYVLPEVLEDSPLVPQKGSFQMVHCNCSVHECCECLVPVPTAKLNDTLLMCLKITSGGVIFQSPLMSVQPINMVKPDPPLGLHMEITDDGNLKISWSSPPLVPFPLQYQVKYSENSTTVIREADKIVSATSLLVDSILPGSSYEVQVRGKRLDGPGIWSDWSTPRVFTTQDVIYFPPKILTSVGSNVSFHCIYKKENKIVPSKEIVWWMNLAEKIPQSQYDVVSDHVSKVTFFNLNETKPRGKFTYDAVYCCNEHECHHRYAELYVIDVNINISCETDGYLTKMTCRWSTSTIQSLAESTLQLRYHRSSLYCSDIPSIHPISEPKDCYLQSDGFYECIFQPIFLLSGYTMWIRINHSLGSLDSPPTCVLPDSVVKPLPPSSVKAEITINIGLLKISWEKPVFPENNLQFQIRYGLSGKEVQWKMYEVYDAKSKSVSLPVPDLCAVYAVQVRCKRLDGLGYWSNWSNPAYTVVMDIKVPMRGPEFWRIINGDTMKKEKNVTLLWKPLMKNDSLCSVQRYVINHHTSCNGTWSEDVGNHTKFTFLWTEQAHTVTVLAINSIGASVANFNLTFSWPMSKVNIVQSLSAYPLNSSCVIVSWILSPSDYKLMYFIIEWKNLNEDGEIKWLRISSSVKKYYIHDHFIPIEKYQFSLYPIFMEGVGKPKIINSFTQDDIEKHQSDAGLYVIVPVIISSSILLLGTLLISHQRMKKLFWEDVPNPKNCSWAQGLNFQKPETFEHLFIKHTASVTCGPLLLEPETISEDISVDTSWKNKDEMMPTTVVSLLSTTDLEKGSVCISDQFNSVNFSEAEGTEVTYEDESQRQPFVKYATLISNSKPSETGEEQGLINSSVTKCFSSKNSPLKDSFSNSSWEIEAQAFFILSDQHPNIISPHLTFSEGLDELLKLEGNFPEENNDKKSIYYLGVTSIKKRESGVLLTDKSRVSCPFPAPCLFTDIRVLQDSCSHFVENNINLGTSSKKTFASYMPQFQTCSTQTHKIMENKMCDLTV
UniProt Q9UHA4, whole entry, looked up: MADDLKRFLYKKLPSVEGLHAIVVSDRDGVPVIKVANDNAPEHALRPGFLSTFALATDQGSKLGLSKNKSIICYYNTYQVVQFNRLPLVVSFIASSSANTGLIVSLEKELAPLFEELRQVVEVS
UniProt P28838: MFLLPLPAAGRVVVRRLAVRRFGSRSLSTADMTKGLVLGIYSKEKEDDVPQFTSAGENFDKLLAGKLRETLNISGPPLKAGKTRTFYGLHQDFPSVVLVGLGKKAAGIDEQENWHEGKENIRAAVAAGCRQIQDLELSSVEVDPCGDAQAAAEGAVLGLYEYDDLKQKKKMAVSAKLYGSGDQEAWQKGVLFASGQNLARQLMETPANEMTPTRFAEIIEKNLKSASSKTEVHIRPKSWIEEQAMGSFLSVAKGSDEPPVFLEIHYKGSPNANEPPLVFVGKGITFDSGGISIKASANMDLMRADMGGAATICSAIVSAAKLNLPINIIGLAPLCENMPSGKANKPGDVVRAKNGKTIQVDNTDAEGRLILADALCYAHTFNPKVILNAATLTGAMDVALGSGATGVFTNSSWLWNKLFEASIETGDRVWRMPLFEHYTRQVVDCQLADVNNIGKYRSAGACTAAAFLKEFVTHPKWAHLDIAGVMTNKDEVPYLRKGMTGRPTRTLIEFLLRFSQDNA
UniProt Q8NF37: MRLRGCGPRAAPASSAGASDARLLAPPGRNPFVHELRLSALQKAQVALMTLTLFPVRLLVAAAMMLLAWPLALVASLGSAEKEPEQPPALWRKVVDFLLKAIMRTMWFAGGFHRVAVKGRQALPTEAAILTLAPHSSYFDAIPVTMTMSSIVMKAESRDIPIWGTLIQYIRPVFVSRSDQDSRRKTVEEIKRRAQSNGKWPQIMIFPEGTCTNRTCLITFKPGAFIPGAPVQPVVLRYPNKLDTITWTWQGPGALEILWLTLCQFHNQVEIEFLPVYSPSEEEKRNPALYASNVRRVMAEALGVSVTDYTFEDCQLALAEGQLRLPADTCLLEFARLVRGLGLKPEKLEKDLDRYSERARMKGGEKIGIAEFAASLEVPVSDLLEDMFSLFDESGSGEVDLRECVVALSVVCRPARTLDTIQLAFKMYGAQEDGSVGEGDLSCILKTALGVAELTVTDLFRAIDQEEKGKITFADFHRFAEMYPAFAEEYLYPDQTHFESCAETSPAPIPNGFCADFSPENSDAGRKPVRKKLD
UniProt Q6UWP7: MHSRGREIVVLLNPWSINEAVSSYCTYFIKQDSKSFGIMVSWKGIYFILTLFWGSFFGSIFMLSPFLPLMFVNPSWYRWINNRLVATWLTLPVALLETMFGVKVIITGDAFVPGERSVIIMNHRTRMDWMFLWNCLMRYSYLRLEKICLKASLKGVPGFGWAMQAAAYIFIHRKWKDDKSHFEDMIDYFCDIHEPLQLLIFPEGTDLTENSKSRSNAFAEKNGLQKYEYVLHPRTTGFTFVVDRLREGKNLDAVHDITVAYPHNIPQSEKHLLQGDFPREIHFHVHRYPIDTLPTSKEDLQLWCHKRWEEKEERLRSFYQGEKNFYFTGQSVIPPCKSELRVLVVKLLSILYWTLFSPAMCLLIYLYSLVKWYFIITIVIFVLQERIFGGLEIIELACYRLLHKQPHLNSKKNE
UniProt P18858, whole entry, looked up: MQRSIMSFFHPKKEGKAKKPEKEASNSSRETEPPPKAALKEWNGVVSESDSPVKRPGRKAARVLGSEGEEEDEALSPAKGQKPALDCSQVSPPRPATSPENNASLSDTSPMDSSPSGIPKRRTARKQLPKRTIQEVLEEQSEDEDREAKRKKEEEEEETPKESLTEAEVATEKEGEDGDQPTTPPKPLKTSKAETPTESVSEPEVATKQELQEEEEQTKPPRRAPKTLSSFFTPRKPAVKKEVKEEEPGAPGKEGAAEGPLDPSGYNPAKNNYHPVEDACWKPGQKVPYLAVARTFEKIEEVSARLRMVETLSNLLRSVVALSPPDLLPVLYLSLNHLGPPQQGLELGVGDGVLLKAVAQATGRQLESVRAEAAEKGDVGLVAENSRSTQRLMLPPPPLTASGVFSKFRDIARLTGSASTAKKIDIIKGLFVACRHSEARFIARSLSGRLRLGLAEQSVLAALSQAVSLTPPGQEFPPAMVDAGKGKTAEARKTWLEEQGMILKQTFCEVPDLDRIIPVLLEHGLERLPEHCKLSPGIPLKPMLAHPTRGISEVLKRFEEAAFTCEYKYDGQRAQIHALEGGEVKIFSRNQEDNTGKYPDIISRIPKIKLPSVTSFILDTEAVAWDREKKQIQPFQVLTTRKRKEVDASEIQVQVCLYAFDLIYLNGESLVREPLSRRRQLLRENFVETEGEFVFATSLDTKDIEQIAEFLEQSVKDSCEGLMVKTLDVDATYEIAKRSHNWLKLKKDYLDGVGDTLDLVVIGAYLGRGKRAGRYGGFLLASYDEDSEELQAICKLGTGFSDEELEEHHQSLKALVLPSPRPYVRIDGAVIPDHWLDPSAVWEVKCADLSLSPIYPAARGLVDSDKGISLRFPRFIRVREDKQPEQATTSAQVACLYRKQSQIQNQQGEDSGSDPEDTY
UniProt Q8TCA0: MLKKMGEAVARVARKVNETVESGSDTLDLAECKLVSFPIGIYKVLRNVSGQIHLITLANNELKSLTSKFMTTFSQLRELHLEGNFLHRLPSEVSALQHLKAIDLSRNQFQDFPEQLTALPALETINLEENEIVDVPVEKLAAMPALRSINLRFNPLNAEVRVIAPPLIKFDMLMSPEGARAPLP
UniProt P48059, whole entry, looked up: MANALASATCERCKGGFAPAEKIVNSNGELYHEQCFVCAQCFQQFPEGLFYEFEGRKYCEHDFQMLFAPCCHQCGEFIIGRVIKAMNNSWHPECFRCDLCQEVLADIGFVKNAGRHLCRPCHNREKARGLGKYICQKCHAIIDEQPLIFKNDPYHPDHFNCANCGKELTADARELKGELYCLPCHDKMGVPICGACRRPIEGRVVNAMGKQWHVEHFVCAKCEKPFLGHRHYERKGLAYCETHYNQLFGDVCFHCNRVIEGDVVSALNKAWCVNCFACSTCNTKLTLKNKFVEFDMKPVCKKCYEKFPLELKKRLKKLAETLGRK
UniProt P30533, whole entry, looked up: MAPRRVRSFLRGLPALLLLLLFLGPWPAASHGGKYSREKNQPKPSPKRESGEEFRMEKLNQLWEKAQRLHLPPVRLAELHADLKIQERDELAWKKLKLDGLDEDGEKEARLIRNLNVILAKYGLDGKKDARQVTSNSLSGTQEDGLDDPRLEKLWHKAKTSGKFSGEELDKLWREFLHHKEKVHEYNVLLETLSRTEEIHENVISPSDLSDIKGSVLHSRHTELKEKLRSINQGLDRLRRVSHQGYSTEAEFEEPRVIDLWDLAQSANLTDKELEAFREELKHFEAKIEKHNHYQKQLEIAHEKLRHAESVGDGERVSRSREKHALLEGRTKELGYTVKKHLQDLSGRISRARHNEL
UniProt P80188: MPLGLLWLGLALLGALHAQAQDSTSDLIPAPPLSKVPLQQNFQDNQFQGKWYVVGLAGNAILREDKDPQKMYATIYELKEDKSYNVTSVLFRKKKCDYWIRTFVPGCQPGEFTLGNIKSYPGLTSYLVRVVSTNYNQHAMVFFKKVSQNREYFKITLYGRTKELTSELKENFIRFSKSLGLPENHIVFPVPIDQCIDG
UniProt Q15031: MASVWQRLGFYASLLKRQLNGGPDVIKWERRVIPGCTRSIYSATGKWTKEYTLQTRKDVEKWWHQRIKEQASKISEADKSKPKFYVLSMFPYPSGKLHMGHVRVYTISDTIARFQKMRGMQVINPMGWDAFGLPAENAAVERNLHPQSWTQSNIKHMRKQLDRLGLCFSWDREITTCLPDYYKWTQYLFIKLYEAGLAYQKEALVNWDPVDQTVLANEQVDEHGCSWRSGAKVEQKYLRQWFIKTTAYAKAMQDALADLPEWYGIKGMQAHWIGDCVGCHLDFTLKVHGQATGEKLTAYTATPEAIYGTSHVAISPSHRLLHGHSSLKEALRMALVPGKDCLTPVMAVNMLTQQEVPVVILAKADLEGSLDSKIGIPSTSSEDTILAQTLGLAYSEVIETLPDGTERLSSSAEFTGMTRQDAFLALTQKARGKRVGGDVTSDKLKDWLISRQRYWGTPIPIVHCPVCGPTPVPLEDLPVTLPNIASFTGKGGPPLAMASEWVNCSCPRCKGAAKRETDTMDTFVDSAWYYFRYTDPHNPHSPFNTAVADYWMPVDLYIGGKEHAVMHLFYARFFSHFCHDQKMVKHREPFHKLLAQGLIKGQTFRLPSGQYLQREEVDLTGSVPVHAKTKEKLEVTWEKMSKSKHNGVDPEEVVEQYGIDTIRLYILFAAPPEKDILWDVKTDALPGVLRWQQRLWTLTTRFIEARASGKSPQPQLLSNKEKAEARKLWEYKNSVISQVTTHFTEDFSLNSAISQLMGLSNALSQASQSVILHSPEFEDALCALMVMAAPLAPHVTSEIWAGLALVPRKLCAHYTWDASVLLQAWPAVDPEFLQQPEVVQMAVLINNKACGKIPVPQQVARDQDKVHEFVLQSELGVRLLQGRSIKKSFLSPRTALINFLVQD

Legend:
Assay in all cases: log2 fold change, soluble protein after heating vs DMSO (PISA); higher = thermal stabilisation; K562 cells, 10 uM, 30 min; active = over 0.2 and 3.5 SD of the protein, either way, in both replicates (recomputed)
[1] = compound: CC1=C(C=C(C=C1)NC(=O)C2=CC(=CC=C2)C(C)(C)C#N)NC3=CC4=C(C=C3)N=CN(C4=O)C
Summary of the method: (§1)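 Soluble protein was defined as the supernatant after 21,000xg for 90 min. It came from K562 cells at 2×10^6 cells/mL given 10 μM compound for 30 min, heated in aliquots for 3 min across 48°C-58°C, pooled, and extracted in PBS with 0.5% NP-40 at 4°C, and was quantified by TMTpro 16plex LC-MS/MS with equalised channel sums. Thermal stability against control samples, from duplicates, is reported as log2 fold change.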

[2] = compound: CC1=C(C=C(C=C1)NC(=O)C2=CC(=CC=C2)N(C)C)NC(=O)C3=CC=C(C=C3)O
Summary of the method: as §1

[3] = compound: CC1=CC=C(C=C1)SC2=C3C=C(SC3=CN=C2)C(=O)N
Summary of the method: as §1

[4] = compound: CC1=NC(=CC=C1)C2=C(N=C(N2)C(C)(C)C)C3=CC4=NC=CN=C4C=C3
Summary of the method: as §1

Nexturastat A = compound: CCCCN(Cc1ccc(C(=O)NO)cc1)C(=O)Nc1ccccc1 [Nexturastat A]
Summary of the method: as §1

vemurafenib = compound: CCCS(=O)(=O)Nc1ccc(F)c(C(=O)c2c[nH]c3ncc(-c4ccc(Cl)cc4)cc23)c1F [vemurafenib]
Summary of the method: as §1

[5] = compound: CCCS(=O)(=O)Nc1ccc(F)c(C(=O)c2c[nH]c3ncc(Cl)cc23)c1F
Summary of the method: as §1

[6] = compound: CCCc1cc(C)[nH]c(=O)c1CNC(=O)c1cc(-c2ccnc(N3CCN(C)CC3)c2)cc2c1cnn2C(C)C
Summary of the method: as §1

givinostat = compound: CCN(CC)Cc1ccc2cc(COC(=O)Nc3ccc(C(=O)NO)cc3)ccc2c1 [givinostat]
Summary of the method: as §1

barasertib = compound: CCN(CCCOc1ccc2c(Nc3cc(CC(=O)Nc4cccc(F)c4)[nH]n3)ncnc2c1)CCOP(=O)(O)O [barasertib]
Summary of the method: as §1

[7] = compound: CC[C@@H]1C(=O)N(C)c2cnc(Nc3ccc(C(=O)NC4CCN(C)CC4)cc3OC)nc2N1C1CCCC1
Summary of the method: as §1

volasertib = compound: CC[C@@H]1C(=O)N(C)c2cnc(Nc3ccc(C(=O)N[C@H]4CC[C@H](N5CCN(CC6CC6)CC5)CC4)cc3OC)nc2N1C(C)C [volasertib]
Summary of the method: as §1

[8] = compound: CC[C@H](C)N1C=C(C2=C(C=C(C=C21)C3=CN=C(C=C3)N4CCNCC4)C(=O)NCC5=C(C=C(NC5=O)C)C)C
Summary of the method: as §1

epoxomicin = compound: CC[C@H](C)[C@@H](C(=O)N[C@@H]([C@@H](C)O)C(=O)N[C@@H](CC(C)C)C(=O)[C@]1(CO1)C)NC(=O)[C@H]([C@@H](C)CC)N(C)C(=O)C [epoxomicin]
Summary of the method: as §1

[9] = compound: CCn1c(C(=O)N(C2CC2)C2CC2)cc2c3c(ncn3C)c(Nc3cc(C)n(C)n3)nc21
Summary of the method: as §1

[10] = compound: CCn1cc(-c2ccnc3[nH]c(-c4cccc(CN(C)C)c4)cc23)c(-c2ccc(NC(=O)N(C)C)cc2)n1
Summary of the method: as §1

[11] = compound: CN(C)CC(=O)Nc1ccc2[nH]c(=O)c3ccccc3c2c1
Summary of the method: as §1

rosiglitazone = compound: CN(CCOC1=CC=C(C=C1)C[C@H]2C(=O)NC(=O)S2)C3=CC=CC=N3 (racemic) [rosiglitazone]
Summary of the method: as §1

[12] = compound: CN1C2=C(C3=C1C(=O)N(N=C3)CC4=CC(=CC=C4)N)SC(=C2)S(=O)C
Summary of the method: as §1

[13] = compound: CN1CCC(CNc2ccc3ncc(-c4cccc(OC(F)(F)F)c4)n3n2)CC1
Summary of the method: as §1

Measured: log2 fold change

LAMTOR2 (UniProt Q9Y2Q5)
inactive: [1] 0.043 | [2] 0.013 | [3] -0.034 | [4] -0.073 | Nexturastat A 0.101 | vemurafenib -0.095 | [5] 0.005 | [6] -0.023 | givinostat -0.042 | barasertib -0.005 | [7] -0.026 | volasertib 0.071 | [8] -0.037 | epoxomicin 0.09 | [9] 0.044 | [10] 0.021 | [11] 0.029 | rosiglitazone -0.026 | [12] 0.016 | [13] -0.039

LANCL1 (UniProt O43813)
inactive: [1] -0.025 | [2] 0.015 | [3] 0 | [4] 0.017 | Nexturastat A -0.03 | vemurafenib 0.02 | [5] -0.06 | [6] -0.04 | givinostat -0.033 | barasertib -0.019 | [7] 0.002 | volasertib 0.076 | [8] -0.023 | epoxomicin 0.038 | [9] -0.018 | [10] -0.013 | [11] -0.021 | rosiglitazone -0.018 | [12] -0.043 | [13] -0.097

KYNU (UniProt Q16719)
inactive: [1] -0.028 | [2] 0.028 | [3] 0.003 | [4] -0.062 | Nexturastat A -0.002 | vemurafenib -0.038 | [5] -0.014 | [6] -0.049 | givinostat 0.018 | barasertib 0.007 | [7] 0.093 | volasertib 0.014 | [8] -0.02 | epoxomicin 0.008 | [9] 0.05 | [10] 0.031 | [11] -0.045 | rosiglitazone -0.026 | [12] -0.038 | [13] -0.058

LEPR (UniProt P48357)
inactive: [1] 0.019 | [2] -0.032 | [3] -0.032 | [4] -0.015 | Nexturastat A -0.035 | vemurafenib 0.009 | [5] -0.041 | [6] 0.015 | givinostat 0.025 | barasertib 0.025 | [7] 0.047 | volasertib -0.001 | [8] 0.006 | epoxomicin 0.01 | [9] 0.042 | [10] -0.022 | [11] -0.017 | rosiglitazone 0.023 | [12] -0.078 | [13] 0.104

LAMTOR3 (UniProt Q9UHA4)
inactive: [1] 0.061 | [2] -0.021 | [3] 0.03 | [4] -0.033 | Nexturastat A 0.087 | vemurafenib -0.035 | [5] 0.009 | [6] 0.069 | givinostat 0.01 | barasertib -0.008 | [7] -0.006 | volasertib 0.03 | [8] -0.041 | epoxomicin -0.002 | [9] 0.047 | [10] -0.118 | [11] -0.02 | rosiglitazone -0.045 | [12] 0.059 | [13] -0.036

2 successive entries out of the list so far, quoted:
LEPR (UniProt P48357)
inactive: [1] 0.019 | [2] -0.032 | [3] -0.032 | [4] -0.015 | Nexturastat A -0.035 | vemurafenib 0.009 | [5] -0.041 | [6] 0.015 | givinostat 0.025 | barasertib 0.025 | [7] 0.047 | volasertib -0.001 | [8] 0.006 | epoxomicin 0.01 | [9] 0.042 | [10] -0.022 | [11] -0.017 | rosiglitazone 0.023 | [12] -0.078 | [13] 0.104

LAMTOR3 (UniProt Q9UHA4)
inactive: [1] 0.061 | [2] -0.021 | [3] 0.03 | [4] -0.033 | Nexturastat A 0.087 | vemurafenib -0.035 | [5] 0.009 | [6] 0.069 | givinostat 0.01 | barasertib -0.008 | [7] -0.006 | volasertib 0.03 | [8] -0.041 | epoxomicin -0.002 | [9] 0.047 | [10] -0.118 | [11] -0.02 | rosiglitazone -0.045 | [12] 0.059 | [13] -0.036

(listing goes on)

LAP3 (UniProt P28838)
inactive: [1] 0.007 | [2] 0 | [3] 0.052 | [4] 0.026 | Nexturastat A -0.133 | vemurafenib 0.025 | [5] 0.027 | [6] -0.066 | givinostat 0.07 | barasertib -0.006 | [7] -0.003 | volasertib -0.014 | [8] -0.03 | epoxomicin 0.005 | [9] -0.016 | [10] -0.029 | [11] 0.021 | rosiglitazone 0.015 | [12] -0.053 | [13] 0.038

LPCAT1 (UniProt Q8NF37)
inactive: [1] -0.012 | [2] -0.016 | [3] 0.01 | [4] 0.048 | Nexturastat A -0.024 | vemurafenib -0.067 | [5] 0.016 | [6] -0.017 | givinostat 0.019 | barasertib 0.019 | [7] 0.017 | volasertib -0.228 | [8] 0.015 | epoxomicin -0.031 | [9] 0.005 | [10] -0.018 | [11] 0.057 | rosiglitazone 0.008 | [12] -0.004 | [13] -0.092

LCLAT1 (UniProt Q6UWP7)
inactive: [1] -0.019 | [2] 0.016 | [3] -0.055 | [4] -0.006 | Nexturastat A -0.034 | vemurafenib -0.04 | [5] -0.031 | [6] 0.011 | givinostat 0.049 | barasertib 0.031 | [7] -0.01 | volasertib -0.062 | [8] 0.007 | epoxomicin 0.048 | [9] -0.046 | [10] -0.047 | [11] 0.005 | rosiglitazone 0.011 | [12] -0.017 | [13] 0.175

LIG1 (UniProt P18858)
inactive: [1] -0.034 | [2] -0.1 | [3] 0.079 | [4] 0.085 | Nexturastat A -0.034 | vemurafenib 0.063 | [5] 0.09 | [6] 0.016 | givinostat 0.129 | barasertib 0.051 | [7] -0.119 | volasertib -0.205 | [8] 0.099 | epoxomicin 0.092 | [9] -0.041 | [10] -0.145 | [11] 0.142 | rosiglitazone 0.016 | [12] -0.059 | [13] -0.141

LAMTOR4 (UniProt Q0VGL1)
inactive: [1] 0.016 | [2] 0.006 | [3] -0.012 | [4] 0.034 | Nexturastat A 0.167 | vemurafenib -0.024 | [5] -0.024 | [6] -0.092 | givinostat 0.006 | barasertib -0.032 | [7] 0.001 | volasertib -0.023 | [8] -0.046 | epoxomicin 0.011 | [9] 0.102 | [10] -0.011 | [11] -0.053 | rosiglitazone 0.014 | [12] 0.043 | [13] -0.083

LRRC20 (UniProt Q8TCA0)
inactive: [1] -0.025 | [2] -0.142 | [3] -0.064 | [4] 0.002 | Nexturastat A -0.11 | vemurafenib 0.009 | [5] -0.043 | [6] 0.012 | givinostat -0.055 | barasertib 0.007 | [7] 0.002 | volasertib -0.028 | [8] 0.027 | epoxomicin 0.023 | [9] 0.063 | [10] 0.026 | [11] 0.108 | rosiglitazone 0.063 | [12] -0.086 | [13] 0.052

LIMS1 isoform 3 (UniProt P48059)
inactive: [1] -0.033 | [2] -0.005 | [3] 0.02 | [4] 0.037 | Nexturastat A -0.038 | vemurafenib -0.032 | [5] -0.065 | [6] -0.036 | givinostat -0.045 | barasertib -0.002 | [7] -0.009 | volasertib 0.013 | [8] -0.006 | epoxomicin 0.038 | [9] 0.02 | [10] -0.028 | [11] -0.026 | rosiglitazone -0.002 | [12] -0.042 | [13] -0.062

LAPTM4A (UniProt Q15012)
inactive: [1] 0.008

LRPAP1 (UniProt P30533)
inactive: [1] -0.029 | [2] -0.058 | [3] -0.028 | [4] -0.021 | Nexturastat A -0.076 | vemurafenib -0.028 | [5] -0.023 | [6] -0.018 | givinostat -0.15 | barasertib 0.015 | [7] -0.002 | volasertib 0.066 | [8] 0.008 | epoxomicin 0.013 | [9] 0.045 | [10] -0.017 | [11] -0.032 | rosiglitazone -0.003 | [12] -0.061 | [13] 0.059

LCN2 isoform 2 (UniProt P80188)
inactive: [1] -0.289

LARS2 (UniProt Q15031)
inactive: [1] -0.004 | [2] -0.022 | [3] -0.013 | [4] 0.018 | Nexturastat A -0.063 | vemurafenib 0.048 | [5] 0.056 | [6] -0.001 | givinostat 0.009 | barasertib 0.036 | [7] -0.03 | volasertib -0.13 | [8] 0.024 | epoxomicin 0.033 | [9] 0.009 | [10] -0.059 | [11] 0 | rosiglitazone 0.008 | [12] -0.054 | [13] -0.092
